# Out of some 400,000 compounds screened, about 13,000 (3.2%) were called active. This list was built around the results that the source calls inconclusive (neither active nor inactive); the mix of calls is not that of the screen. Calls follow the shape of the dose curve; as a rule, active = well fitted cell-killing curve with a large enough effect; inconclusive = small, poorly fitted or top-dose-only effect, or effect the other way; inactive = flat fitted curve, though single readings scatter. Potencies of inconclusive entries are doubtful fits and often do not repeat.
# Assay: qHTS assay for MDR1-selective chemotherapeutics: Primary screen using the drug-selected MDR subline cells KB-V1; also: nearly all actives have a fitted effect of over 60% in size
# Conditions: KB-V1 MDR cells viability, CellTiter-Glo, 72 h; activity change, negative = cytotoxicity: at 46.1 µM (top of the series)
# Procedure, shortened: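 Potencies derive from concentration-effect curves fitted to normalized luminescence (CellTiter-Glo) of KB-V1 cells treated for 72 h at 37 degrees C in phenol-red-free DMEM containing 10% FBS.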
# % is scaled to controls: 0 for no effect and ±100 for the full control effect; potency is read from the fitted curve at half-maximal effect.
Structure (SMILES),Potency,"activity change, negative = cytotoxicity"
CC(=O)Oc1ccccc1C1=NN(C(=O)/C=C/c2ccccc2)C(c2ccccc2)C1 (configuration not stated),"inconclusive: 7.31 µM [cytotoxic, partial curve]",–
COC(=O)c1ccccc1NC(=O)CSc1ncn[nH]1,inactive,–
CCCc1cc(=O)[nH]c(SCC(=O)N2CCN(S(=O)(=O)c3ccc4ccccc4c3)CC2)n1,inactive,–
C=C(C)COc1ccc(-c2[nH]ncc2-c2ccc(OC)c(OC)c2)c(O)c1,active: 1.3 µM,–
O=C(/C=C/c1ccco1)Nc1ccccn1,"inconclusive: 6.51 µM [cytotoxic, full curve, poor fit]",–
Cc1ccc(N2CN(Cc3cccnc3)CNC2=S)c(C)c1,"inconclusive: 2.06 µM [rising, partial curve, poor fit]",–
O=C(NCc1ccc(Cl)cc1)c1cc2cccc3c2n1CCS3,"inconclusive: 23.1 µM [cytotoxic, single point]",–
COc1cccc(/C=N/Nc2nn3cnnc3c3ccccc23)c1,"inconclusive: 29.1 µM [cytotoxic, single point]",–
CCOc1ccc(-c2ccc(SCC(=O)NCC3CCCO3)nn2)cc1 (configuration not stated),"inconclusive: 16.4 µM [cytotoxic, single point]",–
N#C/C(=C\Nc1ccccc1O)c1nc2ccccc2o1,active: 20.6 µM,–
CCCCCCc1cc2cc(-c3nnc(-c4ccccc4)o3)c(=O)oc2cc1O,"inconclusive: 29.1 µM [cytotoxic, single point]",–
CC(C)(C)NC(=O)Cn1cc(S(=O)(=O)Cc2ccccc2Cl)c2ccccc21,inactive,–
Cc1cccc(-n2c(=O)c3c(c4cc(C)ccc4n3C)n(CC(=O)Nc3ccc(C)c(C)c3)c2=O)c1,inactive,–
Cc1cc2ccccc2n1CCNC(=O)C1CCCCC1,"inconclusive: 1.03 µM [rising, partial curve]",–
Cc1nc2ccccc2c2oc(C(=O)N3CCN(C(=O)c4ccco4)CC3)cc12,"inconclusive: 29.1 µM [cytotoxic, single point]",–
CCOC(=O)[C@]12CCC=C1N(Cc1cccc3ccccc13)C(=O)[C@H](CC(=O)NCCC(C)C)C2,active: 16.4 µM,–
O=C(Cn1nc(-c2ccc(F)cc2)ccc1=O)Nc1ccc(C(=O)NC2CC2)cc1,"inconclusive: 9.2 µM [rising, partial curve, poor fit]",–
CSc1ccc(/C=N/NC(=O)c2ccc(O)cc2)cc1,"inconclusive: 29.1 µM [cytotoxic, single point]",–
CN(C)CCC(=O)N1c2ccccc2Sc2ccc(Cl)cc21,inactive,–
COc1ccc(C2CC(c3cccc(Cl)c3)=NN2c2ccc(S(N)(=O)=O)cc2)cc1 (configuration not stated),"inconclusive: 29.1 µM [cytotoxic, single point]",–
O=C(Nc1cc(Cl)cc(Cl)c1)N1CCN(C(=O)C2CCCO2)CC1 (configuration not stated),"inconclusive: 29.1 µM [cytotoxic, single point]",–
COc1ccc(-c2noc3c2-c2nc(-c4ccccc4C)sc2CC3)cc1,"inconclusive: 6.51 µM [cytotoxic, partial curve, poor fit]",–
CCOC(=O)CN(C(=O)CNC(=O)c1ccco1)C(C(=O)NC1CCCCC1)c1cccnc1 (configuration not stated),"inconclusive: 23.1 µM [rising, single point]",–
CC(C)c1ccc(NC(=O)CSc2nnc(-c3ccccn3)n2C)cc1,active: 5.17 µM,–

# Copied from the list.
# `CC(=O)Oc1ccccc1C1=NN(C(=O)/C=C/c2ccccc2)C(c2ccccc2)C1` (configuration not stated) | Potency: inconclusive: 7.31 µM [cytotoxic, partial curve]
# `O=C(NCc1ccc(Cl)cc1)c1cc2cccc3c2n1CCS3` | Potency: inconclusive: 23.1 µM [cytotoxic, single point]
# `COC(=O)c1ccccc1NC(=O)CSc1ncn[nH]1` | Potency: inactive
# `CCOC(=O)CN(C(=O)CNC(=O)c1ccco1)C(C(=O)NC1CCCCC1)c1cccnc1` (configuration not stated) | Potency: inconclusive: 23.1 µM [rising, single point]
# `C=C(C)COc1ccc(-c2[nH]ncc2-c2ccc(OC)c(OC)c2)c(O)c1` | Potency: active: 1.3 µM
# `CC(C)(C)NC(=O)Cn1cc(S(=O)(=O)Cc2ccccc2Cl)c2ccccc21` | Potency: inactive

# Additional compounds follow:

Structure (SMILES),Potency,"activity change, negative = cytotoxicity"
O=C(Nc1cccc(C(F)(F)F)c1)c1ccc2nc(-c3ccco3)c(-c3ccco3)nc2c1,inactive,–
CCN(CC)c1ccc(/C=N/N2CCN(Cc3cccc4ccccc34)CC2)c(O)c1,active: 16.4 µM,–
COCCCN1C(=O)C(CC(=O)NC(c2ccccc2)c2ccccc2)CC(C(=O)N2CCCCCC2)=C1C (configuration not stated),"inconclusive: 11.6 µM [cytotoxic, partial curve]",–
Cc1ccc2c(c1)CCCO[C@]21O[C@H](CCO)C[C@H](O)[C@H]1O,inactive,–
COc1ccc(OC)c(Nc2nc(NCCO)c3ccccc3n2)c1,inactive,–
CN1CCN(S(=O)(=O)c2cccc(C(=O)N(C)Cc3cccs3)c2)CC1,inactive,–
Cc1ccc(S(=O)(=O)NCCCNc2ccc([N+](=O)[O-])cc2)cc1,"inconclusive: 29.1 µM [cytotoxic, single point]",–
COc1ccc(NC(=O)/C(C#N)=C/c2ccc(OCc3ccccc3F)cc2)cc1,"inconclusive: 29.1 µM [rising, single point]",–
Cc1cc(/C(N)=N/OC(=O)c2ccc(Cl)cc2)no1,"inconclusive: 3.26 µM [rising, full curve, poor fit]",–
CCN(CC)c1cc(NC2CCCCC2)c2c3c(onc13)-c1ccccc1C2=O,inactive,–
COc1ccccc1CNC(=O)CSc1nc(N)c(C#N)c(-c2cccs2)c1C#N,"inconclusive: 14.1 µM [cytotoxic, partial curve, poor fit]",–
COC(=O)[C@@]12C[C@@H](CC(=O)N3CCCCC3)C(=O)N(CCc3ccc(OC)c(OC)c3)C1=CCC(C)(C)C2,"inconclusive: 18.4 µM [cytotoxic, partial curve, poor fit]",–
Cn1c(=O)c2c(nc(N3CCc4ccccc4C3)n2Cc2ccccc2F)n(C)c1=O,"inconclusive: 35.5 µM [cytotoxic, single point]",–
COc1cccc(CN(C)CC(=O)Nc2cccc(S(=O)(=O)N(C)c3ccccc3)c2)c1OC,active: 2.59 µM,–
C=CCOc1ccc(/C=C2\SC(=S)N(NS(=O)(=O)c3ccc(C)cc3)C2=O)cc1,inactive,–
COc1cccc(CNC(=O)C2CCCN(c3nn4cc(-c5ccc(C)cc5)nc4s3)C2)c1 (configuration not stated),inactive,–
COc1ccc(S(=O)(=O)N2CCCOC2CNC(=O)C(=O)NCc2ccccc2F)cc1C (configuration not stated),"inconclusive: 7.31 µM [cytotoxic, partial curve, poor fit]",–
Cc1nc2cc3ccccc3cc2c(=O)[nH]1,"inconclusive: 23.1 µM [cytotoxic, single point]",–
CCCOc1c(Cl)cc(/C=N/O)cc1OCC,"inconclusive: 18.4 µM [cytotoxic, partial curve]",–
CNc1nnc(-c2ccc(C)cc2)c2ccccc12,"inconclusive: 29.1 µM [cytotoxic, single point]",–
Cc1ccc(NC(=O)C/C(N)=N/OC(=O)Nc2ccc(C)c(Cl)c2)cc1,inactive,–
CC(=O)NC(CC(=O)N1CCN(C(C)=O)CC1)c1ccccc1 (configuration not stated),inactive,–
COC(=O)c1ccc(N=CC2=C(O)CC(c3ccccc3)CC2=O)cc1 (configuration not stated),"inconclusive: 5.8 µM [rising, partial curve, poor fit]",–
CCC(NC(=O)CCCc1ccccc1)c1ccccc1 (configuration not stated),active: 18.4 µM,–

Structure (SMILES),Potency,"activity change, negative = cytotoxicity"
CN1CCC(NC(=O)c2cc(-c3cccc(Br)c3)nc3ccccc23)CC1,inactive,–
CC1CCCC(C)N1C(=O)CSc1nccc(=O)[nH]1 (configuration not stated),"inconclusive: 29.1 µM [rising, single point]",–
O=C(O)CC(NC(=O)C(c1ccccc1)c1ccccc1)c1ccco1 (configuration not stated),"inconclusive: 23.1 µM [rising, single point]",–
O=C(CCCN1C(=O)/C(=C\c2ccco2)SC1=S)Nc1ccc2ccccc2c1,"inconclusive: 4.11 µM [cytotoxic, full curve]",–
COc1ccc(-n2nnnc2SCC(=O)c2ccc(OC)c(OC)c2)cc1,active: 18.4 µM,–
COc1ccc(S(=O)(=O)Nc2cccc(F)c2)cc1C,inactive,–
O=C(O)c1cc(O)ccc1N=Nc1ccccc1,inactive,–
COC(=O)c1ccc(Cn2c(C)c(C(=O)Nc3cccc(Oc4ccccc4)c3)sc2=O)o1,active: 11.6 µM,–
O=C(CN1CCN(S(=O)(=O)c2ccccc2F)CC1)Nc1ccccc1C(=O)c1ccccc1,"inconclusive: 13 µM [cytotoxic, partial curve]",–
CCc1nnc(NC(=O)CSc2nnc(-c3ccccc3O)n2CC)s1,"inconclusive: 16.4 µM [cytotoxic, partial curve, poor fit]",–
Cc1ccc(CC(=O)OC(C)C(=O)NC2CCCCC2C)cc1C (configuration not stated),inactive,–
Cc1nnc(N2CCCC(C(=O)Nc3cc(F)ccc3F)C2)c2nn(-c3ccccc3)c(C)c12 (configuration not stated),inactive,–
COc1ccc(C(=O)C2CCCN(C(=O)C3=CCCC3)C2)cc1OC (configuration not stated),inactive,–
CCCS(=O)(=O)NC(=O)C1(C)CCCN(C(=O)CCc2cccs2)C1 (configuration not stated),inactive,–
CCCCC(=O)OCc1cc(=O)n2nc(C3CC3)sc2n1,inactive,–
Cc1onc(-c2c(Cl)cccc2Cl)c1C(=O)N1CCc2ccccc21,"inconclusive: 29.1 µM [cytotoxic, single point]",–
O=C(CS(=O)(=O)c1cccc2nsnc12)N1CCN(c2ccc(F)cc2)CC1,–,inconclusive: -42.3% [cytotoxic]
CC[C@H](C)[C@@H](C(=O)NCCCCCCCCCCC(=O)N1CCN(C(=O)OC(C)(C)C)CC1)n1cc(CCCCCNC(=O)OC(C)(C)C)nn1,"inconclusive: 29.1 µM [cytotoxic, single point]",–
COCCCN(Cc1cc(OC)c(OC)c(OC)c1)C(=S)Nc1cccc(Cl)c1,"inconclusive: 5.17 µM [cytotoxic, partial curve]",–
CCC(=O)Nc1ccc2nc3c(=O)[nH]c(=S)[nH]c3nc2c1,"inconclusive: 29.1 µM [rising, single point]",–
Cc1cc(-c2ccc(C)c(S(=O)(=O)Nc3ccc(C)c(N(C)C)c3)c2)on1,"inconclusive: 20.6 µM [cytotoxic, partial curve]",–
CNC(=S)N1N=C(c2ccccc2)CC1c1ccc(Br)cc1 (configuration not stated),active: 11.6 µM,–
COc1ccc(S(=O)(=O)N2CCN(CCC(=O)Nc3ccc(F)cc3)CC2)cc1,active: 5.17 µM,–
COc1cc2ccccc2cc1C(=O)Nc1ccc(N2CCN(C)CC2)cc1,"inconclusive: 25.1 µM [cytotoxic, single point]",–

# Reference: PubChem BioAssay AID1347076 (National Center for Advancing Translational Sciences (NCATS), 2019)
